Assay [1] deals with T1, mel-Bgcn::MYC (D. melanogaster Benign gonial cell neoplasm, Flag- and MYC-tagged) (D. melanogaster) (UniProt Q9W1I2).
T1 sequence: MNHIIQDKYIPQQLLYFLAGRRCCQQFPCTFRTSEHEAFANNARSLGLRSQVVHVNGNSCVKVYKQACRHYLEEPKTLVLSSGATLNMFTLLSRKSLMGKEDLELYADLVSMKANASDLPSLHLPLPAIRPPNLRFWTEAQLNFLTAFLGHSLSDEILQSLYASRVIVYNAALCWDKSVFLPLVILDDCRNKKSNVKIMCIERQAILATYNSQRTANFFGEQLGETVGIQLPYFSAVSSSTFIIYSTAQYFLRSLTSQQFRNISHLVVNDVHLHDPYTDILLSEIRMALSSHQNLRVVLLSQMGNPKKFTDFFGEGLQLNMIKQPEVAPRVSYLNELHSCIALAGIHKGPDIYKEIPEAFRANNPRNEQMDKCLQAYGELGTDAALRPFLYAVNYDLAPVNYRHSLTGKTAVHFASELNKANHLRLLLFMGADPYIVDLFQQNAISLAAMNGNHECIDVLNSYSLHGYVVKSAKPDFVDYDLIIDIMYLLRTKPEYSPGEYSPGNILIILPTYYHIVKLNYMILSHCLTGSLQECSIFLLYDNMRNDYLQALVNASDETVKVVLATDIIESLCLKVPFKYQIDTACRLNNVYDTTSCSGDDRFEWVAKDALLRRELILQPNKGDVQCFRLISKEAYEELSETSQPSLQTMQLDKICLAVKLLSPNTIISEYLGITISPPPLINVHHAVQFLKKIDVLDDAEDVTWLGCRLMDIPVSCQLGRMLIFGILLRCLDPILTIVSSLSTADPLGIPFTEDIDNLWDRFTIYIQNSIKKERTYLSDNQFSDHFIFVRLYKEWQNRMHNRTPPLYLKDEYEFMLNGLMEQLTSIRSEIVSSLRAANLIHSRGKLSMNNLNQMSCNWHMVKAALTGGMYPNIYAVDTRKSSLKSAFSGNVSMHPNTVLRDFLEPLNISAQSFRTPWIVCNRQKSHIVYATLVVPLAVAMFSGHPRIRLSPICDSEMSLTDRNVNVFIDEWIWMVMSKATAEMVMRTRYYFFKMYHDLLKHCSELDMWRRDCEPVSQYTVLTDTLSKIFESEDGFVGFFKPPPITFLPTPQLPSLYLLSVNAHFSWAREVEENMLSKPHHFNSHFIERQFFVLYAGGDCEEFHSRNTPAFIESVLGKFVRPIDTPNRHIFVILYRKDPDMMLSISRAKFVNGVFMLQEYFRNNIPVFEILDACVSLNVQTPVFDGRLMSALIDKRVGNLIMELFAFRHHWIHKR
The assay can be described thus: co-IP; S2 cells co-transfected with Bam::HA and mel-Bgcn::MYC (or MYC alone); lysis buffer 50 mM Tris-HCl pH 7.8, 150 mM NaCl, 0.1% NP-40; anti-Myc (9E10) on Protein G Dynabeads, 4°C overnight; immunoprecipitates analysed by Western blot.

In assay [2] the target is T2, mel-Bam::HA (D. melanogaster Bag of marbles, Flag- and HA-tagged) (D. melanogaster) (UniProt P22745).
T2 sequence: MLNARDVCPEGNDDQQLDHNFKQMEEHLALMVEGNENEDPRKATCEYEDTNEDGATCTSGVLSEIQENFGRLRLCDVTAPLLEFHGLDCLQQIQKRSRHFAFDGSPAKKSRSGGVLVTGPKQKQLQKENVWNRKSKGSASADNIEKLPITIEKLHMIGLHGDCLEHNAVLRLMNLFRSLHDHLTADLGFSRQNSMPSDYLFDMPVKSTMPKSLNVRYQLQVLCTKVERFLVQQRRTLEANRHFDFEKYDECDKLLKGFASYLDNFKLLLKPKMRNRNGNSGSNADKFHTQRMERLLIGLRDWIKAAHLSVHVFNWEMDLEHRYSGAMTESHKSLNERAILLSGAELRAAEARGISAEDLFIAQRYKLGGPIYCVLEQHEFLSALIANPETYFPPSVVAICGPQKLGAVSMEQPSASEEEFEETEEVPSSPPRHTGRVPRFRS
The assay is described as follows: co-IP; S2 cells co-transfected with mel-Bgcn::MYC and Bam::HA (or HA alone); lysis buffer 50 mM Tris-HCl pH 7.8, 150 mM NaCl, 0.1% NP-40; anti-HA (3F10) on Protein G Dynabeads, 4°C overnight; immunoprecipitates analysed by Western blot. Background: A western blot detects proteins with antibodies after separation by electrophoresis.

No constants are given. Whether binding was seen depends on the method and setting. Binding seen in cells or lysates may run through a third protein. Some entries that bind do so weakly or less than the wild type. Sequences can lack the tags named with a protein.

B1: mel-Bam::HA (D. melanogaster Bag of marbles, Flag- and HA-tagged) (protein, UniProt P22745 1-442)
chain: MLNARDVCPEGNDDQQLDHNFKQMEEHLALMVEGNENEDPRKATCEYEDTNEDGATCTSGVLSEIQENFGRLRLCDVTAPLLEFHGLDCLQQIQKRSRHFAFDGSPAKKSRSGGVLVTGPKQKQLQKENVWNRKSKGSASADNIEKLPITIEKLHMIGLHGDCLEHNAVLRLMNLFRSLHDHLTADLGFSRQNSMPSDYLFDMPVKSTMPKSLNVRYQLQVLCTKVERFLVQQRRTLEANRHFDFEKYDECDKLLKGFASYLDNFKLLLKPKMRNRNGNSGSNADKFHTQRMERLLIGLRDWIKAAHLSVHVFNWEMDLEHRYSGAMTESHKSLNERAILLSGAELRAAEARGISAEDLFIAQRYKLGGPIYCVLEQHEFLSALIANPETYFPPSVVAICGPQKLGAVSMEQPSASEEEFEETEEVPSSPPRHTGRVPRFRS
Take B1: in assay [1], the binding entry is recorded as “binds”.

B2: mel-Bgcn::MYC (D. melanogaster Benign gonial cell neoplasm, Flag- and MYC-tagged) (protein, UniProt Q9W1I2 1-1215)
chain: MNHIIQDKYIPQQLLYFLAGRRCCQQFPCTFRTSEHEAFANNARSLGLRSQVVHVNGNSCVKVYKQACRHYLEEPKTLVLSSGATLNMFTLLSRKSLMGKEDLELYADLVSMKANASDLPSLHLPLPAIRPPNLRFWTEAQLNFLTAFLGHSLSDEILQSLYASRVIVYNAALCWDKSVFLPLVILDDCRNKKSNVKIMCIERQAILATYNSQRTANFFGEQLGETVGIQLPYFSAVSSSTFIIYSTAQYFLRSLTSQQFRNISHLVVNDVHLHDPYTDILLSEIRMALSSHQNLRVVLLSQMGNPKKFTDFFGEGLQLNMIKQPEVAPRVSYLNELHSCIALAGIHKGPDIYKEIPEAFRANNPRNEQMDKCLQAYGELGTDAALRPFLYAVNYDLAPVNYRHSLTGKTAVHFASELNKANHLRLLLFMGADPYIVDLFQQNAISLAAMNGNHECIDVLNSYSLHGYVVKSAKPDFVDYDLIIDIMYLLRTKPEYSPGEYSPGNILIILPTYYHIVKLNYMILSHCLTGSLQECSIFLLYDNMRNDYLQALVNASDETVKVVLATDIIESLCLKVPFKYQIDTACRLNNVYDTTSCSGDDRFEWVAKDALLRRELILQPNKGDVQCFRLISKEAYEELSETSQPSLQTMQLDKICLAVKLLSPNTIISEYLGITISPPPLINVHHAVQFLKKIDVLDDAEDVTWLGCRLMDIPVSCQLGRMLIFGILLRCLDPILTIVSSLSTADPLGIPFTEDIDNLWDRFTIYIQNSIKKERTYLSDNQFSDHFIFVRLYKEWQNRMHNRTPPLYLKDEYEFMLNGLMEQLTSIRSEIVSSLRAANLIHSRGKLSMNNLNQMSCNWHMVKAALTGGMYPNIYAVDTRKSSLKSAFSGNVSMHPNTVLRDFLEPLNISAQSFRTPWIVCNRQKSHIVYATLVVPLAVAMFSGHPRIRLSPICDSEMSLTDRNVNVFIDEWIWMVMSKATAEMVMRTRYYFFKMYHDLLKHCSELDMWRRDCEPVSQYTVLTDTLSKIFESEDGFVGFFKPPPITFLPTPQLPSLYLLSVNAHFSWAREVEENMLSKPHHFNSHFIERQFFVLYAGGDCEEFHSRNTPAFIESVLGKFVRPIDTPNRHIFVILYRKDPDMMLSISRAKFVNGVFMLQEYFRNNIPVFEILDACVSLNVQTPVFDGRLMSALIDKRVGNLIMELFAFRHHWIHKR
As for B2, in assay [2], the binding entry is “binds”.

(Values after article PMC4546362.)
